Test results reported in article PMC6179040.
No constants are given. Whether binding was seen depends on the method and setting. In cells and extracts the contact can be indirect. Some results given as binding are weak or reduced against the parent protein; the word gives no strength. Each block holds one binder with its values, some of them ahead of it.

Sequences of proteins named here, by UniProt entry; tags and fusion partners are left off.
UniProt P04150: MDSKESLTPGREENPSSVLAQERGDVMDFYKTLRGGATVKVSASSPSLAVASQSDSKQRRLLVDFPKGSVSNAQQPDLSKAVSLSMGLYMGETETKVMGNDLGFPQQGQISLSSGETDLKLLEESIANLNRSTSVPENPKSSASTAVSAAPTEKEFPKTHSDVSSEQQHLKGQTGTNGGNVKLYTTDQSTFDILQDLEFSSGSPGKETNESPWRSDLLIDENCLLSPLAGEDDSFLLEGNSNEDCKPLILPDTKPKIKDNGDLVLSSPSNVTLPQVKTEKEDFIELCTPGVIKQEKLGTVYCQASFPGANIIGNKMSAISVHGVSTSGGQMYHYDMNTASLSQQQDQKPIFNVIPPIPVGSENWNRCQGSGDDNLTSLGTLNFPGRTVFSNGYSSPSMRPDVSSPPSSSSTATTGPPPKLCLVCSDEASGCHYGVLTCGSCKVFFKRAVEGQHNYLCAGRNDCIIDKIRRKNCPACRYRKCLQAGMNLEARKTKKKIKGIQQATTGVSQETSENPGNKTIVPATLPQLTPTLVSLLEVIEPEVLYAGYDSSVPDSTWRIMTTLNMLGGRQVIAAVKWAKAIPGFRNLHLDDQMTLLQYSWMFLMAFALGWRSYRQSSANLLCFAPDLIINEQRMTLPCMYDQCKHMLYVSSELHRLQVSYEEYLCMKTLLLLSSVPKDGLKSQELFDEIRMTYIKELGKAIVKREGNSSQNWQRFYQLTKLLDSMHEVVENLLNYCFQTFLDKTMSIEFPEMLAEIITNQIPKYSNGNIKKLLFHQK
UniProt P06537: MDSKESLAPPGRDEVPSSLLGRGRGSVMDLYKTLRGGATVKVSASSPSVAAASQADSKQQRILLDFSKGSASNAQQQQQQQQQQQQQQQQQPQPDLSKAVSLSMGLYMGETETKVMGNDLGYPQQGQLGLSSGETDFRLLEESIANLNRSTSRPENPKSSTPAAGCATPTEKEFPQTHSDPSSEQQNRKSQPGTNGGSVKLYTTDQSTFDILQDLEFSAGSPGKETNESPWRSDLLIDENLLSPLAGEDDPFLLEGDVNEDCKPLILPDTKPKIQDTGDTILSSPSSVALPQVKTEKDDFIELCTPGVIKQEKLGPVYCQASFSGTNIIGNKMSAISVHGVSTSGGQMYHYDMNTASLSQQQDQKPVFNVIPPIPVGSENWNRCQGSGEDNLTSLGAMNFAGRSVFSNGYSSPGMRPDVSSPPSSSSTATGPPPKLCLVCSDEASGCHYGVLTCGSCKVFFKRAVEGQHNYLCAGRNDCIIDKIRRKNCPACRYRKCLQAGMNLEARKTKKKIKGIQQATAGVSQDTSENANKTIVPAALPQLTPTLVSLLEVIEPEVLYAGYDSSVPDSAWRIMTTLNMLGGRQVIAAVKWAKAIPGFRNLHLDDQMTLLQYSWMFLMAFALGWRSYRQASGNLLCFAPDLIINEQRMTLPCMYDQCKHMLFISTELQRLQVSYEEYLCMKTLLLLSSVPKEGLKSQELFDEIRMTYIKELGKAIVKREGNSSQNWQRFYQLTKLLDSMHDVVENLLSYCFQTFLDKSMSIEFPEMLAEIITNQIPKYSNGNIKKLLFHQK

Columns and labels:
[1] = molecular target: glucocorticoid receptor (transfected, HEK293) (UniProt P04150); assay: co-IP; HEK293 cells transfected with LUMAN constructs and GR; cells crosslinked with 1% paraformaldehyde for 10 min, lysed in RIPA buffer; CREB3 or GR (G-5) antibody, Protein A/G beads, IgG as negative control; Western blot
[2] = molecular target: glucocorticoid receptor (endogenous, m-hippo-E18 cells) (mouse (endogenous in m-hippo-E18)) (UniProt P06537); assay: co-IP; endogenous proteins in mHippo-E18 cells; CREB3 antibody (Proteintech) and GR antibody (G-5) used to pull down their respective proteins, IgG as negative control

- binding [1]: binds
B1: full-length LUMAN (transfected, HEK293) (protein, UniProt O43889 1-371)
chain: MELELDAGDQDLLAFLLEESGDLGTAPDEAVRAPLDWALPLSEVPSDWEVDDLLCSLLSPPASLNILSSSNPCLVHHDHTYSLPRETVSMDLESESCRKEGTQMTPQHMEELAEQEIARLVLTDEEKSLLEKEGLILPETLPLTKTEEQILKRVRRKIRNKRSAQESRRKKKVYVGGLESRVLKYTAQNMELQNKVQLLEEQNLSLLDQLRKLQAMVIEISNKTSSSSTCILVLLVSFCLLLVPAMYSSDTRGSLPAEHGVLSRQLRALPSEDPYQLELPALQSEVPKDSTHQWLDGSDCVLQAPGNTSCLLHYMPQAPSAEPPLEWPFPDLFSEPLCRGPILPLQANLTRKGGWLPTGSPSVILQDRYSG

- binding [2]: binds
B2: LUMAN/CREB3 (endogenous, m-hippo-E18 cells) (protein, UniProt Q61817 1-404)
chain: MDPGGQDLLALDPGDQDLLGFLLEESGDLWAATEPDVKASLDLELSPSENSVQELSDWEVEDLLSSLLSPSVSRDVLGSSSSSILHDHNYSLPQEHVSIDLGECEMISCRGRRELTGLAGSTFPFADTESFEKEGFHVTPLPGEERAAEQEMSRLILTEEEKKLLEKEGLTLPSTLPLTKVEEQVLKRVRRKIRNKRAAQESRKKKKVYVVGLESRVLKYTAQNRELQNKVQRLEEQNLSLLDQLRKLQAMVIEIANKTSSGSTCVLVLVFSFCLLLVPAMYSSDARGSVPAEYVVLHRKLRALPSEDDHQPKPSALSSELPMDSTHQSLDSSEHMFLVSSNFSCVLYHAPQAEQPLHWPLWDLSSEMLFSDSNLLLQANLSESEGWQPNHSPSLVIFQGRYSG
